This experiment is described as follows: qHTS Assay for Lipid Storage Modulators in Drosophila S3 Cells.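 For cell number change: cells counted by Cell Tracker Red CMTPX staining in the red channel.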 The following applies: BODIPY lipid droplet fluorescence, 18-24 h; for cell number change: measured here: cell count max response, cells fed with added oleic acid. In a few lines:
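Laser-scanning cytometry quantifies lipid droplet accumulation (500–530 nm total intensity; droplet/cell object ratio) in oleic acid-fed (400 uM added) Drosophila S3 cells treated with a concentration series. 20 uM Triacsin C defined 100% inhibition.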
A general note: In qHTS, concentration-response curves come from the screen itself.

[1] abbreviates: measured here: lipid fluorescence (Fed channel) AC50, cells fed with added oleic acid.
Setting [2] is: measured here: cell number channel AC50, cells fed with added oleic acid.

Molecules are shown by their SMILES. “And” between values parts separate entries of the source, which are not always exact repeats. Equal values may be shown once. The list shows a part of the results. Shown are side measurements of this screen, not its main read-out; they come without a call. Most of these compounds were active or inconclusive in the main read-out, so they are no random draw. Potencies come from curve fits of mixed quality, noted in brackets.

Usually AC50 stands for the concentration giving half of the maximal activity seen. In the case of `Cc1cc(=O)oc2cc(NC(=O)COc3cccc(C(F)(F)F)c3)ccc12`, the cell number change is -10.9%. In addition, the concentration at half-maximal activity (AC50) under setting [1] is 10.3 µM [falling, partial curve].
For `CC(=O)C1=C(NC(=O)c2ccc(C(F)(F)F)cc2)C[C@@H]2[C@H]1C2(C)C`, the cell number change amounted to 11.8%. In addition, the AC50 under setting [1] is 5.8 µM [rising, partial curve].
In the case of `Cc1ccc(NC(=O)COc2nsnc2N2CCOCC2)cc1Cl`, the cell number change was -30.5%. Moreover, under setting [1], the AC50 is 29.1 µM [falling, single point].
For `COCCN(C(=O)c1cc2c(s1)CCC2)c1c(N)n(CC(C)C)c(=O)[nH]c1=O`, the cell number change is -7.43%.
Same read-out and setting: for `Cc1cc(=O)oc2c(C(=O)/C=C\c3cccs3)c(O)ccc12` the value was -13.5%.
Turning to `O=C(O)CC(=O)Nc1ccccc1`, the cell number change is -25.4%. The concentration at half-maximal activity (AC50) under setting [2] was 0.291 µM [falling, full curve]. Further, under setting [1], the AC50 was 0.461 µM [falling, full curve].
As for `COc1ccc(CNC(=O)COC(=O)[C@H](Cc2c[nH]c3ccccc23)NC(=O)c2cccs2)cc1`, the cell number change worked out at 1.47%. Besides, the half-maximal activity concentration (AC50) under setting [1] is 3.66 µM [rising, partial curve].
For the compound `O=C(C1COc2ccccc2O1)N1CCN(c2ccccc2F)CC1` (stereo not drawn), the cell number change was -5.69%. Besides, under setting [1], the AC50 was 4.61 µM [rising, partial curve].
Consider `COc1ccc(C(=O)NC2CCN(C(=O)Nc3ccccc3Cl)CC2)cc1`, for which the cell number change was -0.552%. Besides, the concentration at half-maximal activity (AC50) under setting [1] is 0.82 µM [falling, full curve, poor fit].
Consider `COc1ccc(CSCC(=O)Nc2ccc(S(=O)(=O)N3CCCCCC3)cc2)cc1`, for which the cell number change was -43.9%. Also, under setting [2], the half-maximal activity concentration (AC50) was 13 µM [falling, partial curve]. In addition, the half-maximal activity concentration (AC50) under setting [1] was 14.6 µM [falling, partial curve].
As for `COc1ccc(C(=O)Nc2nccs2)cc1[N+](=O)[O-]`, the cell number change worked out at 8.71%. The half-maximal activity concentration (AC50) under setting [1] is 18.4 µM [rising, single point].
Turning to `CCCn1c(N)c(N(CCOC)C(=O)CSc2cc(C)c3cccc(C)c3n2)c(=O)[nH]c1=O`, the cell number change is -0.137%. The AC50 under setting [1] was 1.84 µM [rising, partial curve, poor fit].
Take `COc1cc(OC)cc(C(=O)N[C@H](C(=O)Nc2ccc(NC(C)=O)cc2)C(C)C)c1`: the cell number change was -32%. Moreover, the AC50 under setting [2] was 29.1 µM [falling, single point]. The half-maximal activity concentration (AC50) under setting [1] is 13 µM [falling, partial curve].
Turning to `COCCn1c(=NC(=O)C2COc3ccccc3O2)sc2cc(S(N)(=O)=O)ccc21` (stereo not drawn), the cell number change was determined as 23.3%. Besides, the half-maximal activity concentration (AC50) under setting [1] was 1.84 µM [rising, partial curve].
Regarding `CC(=O)c1cccc(N=Cc2c(O)c3ccccc3oc2=O)c1`, the cell number change is -0.552%.
With `Cc1ccc(S(=O)(=O)N2[C@@H](c3cccc(Cl)c3)C(C(=O)O)=CC[C@H]2c2ccc(C(C)C)cc2)cc1`, the cell number change was -25.2%. Moreover, the half-maximal activity concentration (AC50) under setting [1] is 29.1 µM [falling, single point].
On to `Cc1cc(C)c2c(N)c(C(=O)N/N=C/c3cccnc3)sc2n1`, for which the cell number change is -22.7%.
`Cc1ccc(C)c(NS(=O)(=O)c2ccc(OCC(=O)NCc3ccco3)cc2)c1`: the concentration at half-maximal activity (AC50) runs as follows: under setting [2], 6.51 µM [rising, single point]; under setting [1], 6.51 µM [rising, partial curve, poor fit].
Regarding `O=C(/C=C/c1ccc([N+](=O)[O-])cc1)OCc1cnc(-c2ccccc2)o1`, the cell number change was 30.8%. Under setting [2], the concentration at half-maximal activity (AC50) was 2.31 µM [rising, partial curve, poor fit]. Besides, the concentration at half-maximal activity (AC50) under setting [1] is 0.146 µM [rising, full curve, poor fit].
As for `O=C(Nc1ccc2c(c1)OCO2)N1CCN(C/C=C/c2ccccc2)CC1`, the half-maximal activity concentration (AC50) under setting [2] was 4.61 µM [rising, single point] and the concentration at half-maximal activity (AC50) under setting [1] was 3.66 µM [rising, partial curve].
Consider `O=C(c1ccncc1)N1CCN(S(=O)(=O)c2cccc([N+](=O)[O-])c2)CC1`, for which the cell number change was -15.5%. Further, the half-maximal activity concentration (AC50) under setting [2] is 6.51 µM [falling, single point].
`COc1ccc(CN(CC(=O)NCc2ccc(F)cc2)C(=O)CCC(=O)Nc2nccs2)cc1`: the cell number change was 67%. Besides, the AC50 under setting [2] is 20.6 µM [rising, partial curve]. The concentration at half-maximal activity (AC50) under setting [1] was 11.6 µM [falling, single point].
Consider `CCCCNC(=S)N(C)/N=C/c1ccc(F)cc1`, for which the cell number change was -11.8%. In addition, under setting [1], the AC50 is 0.517 µM [falling, single point].
On to `Cc1ccc(S(=O)(=O)C2CCOC2=O)cc1` (stereo not drawn), for which the cell number change amounted to 15.3%. The half-maximal activity concentration (AC50) under setting [1] is 1.64 µM [rising, partial curve].
`CC(=O)Nc1cccc(NC(=O)C2CCCN2C(=O)Nc2ccccc2C)c1` (stereo not drawn): the cell number change is -36.4%. For the same compound, under setting [2], the AC50 is 32.6 µM [falling, single point]. Further, the concentration at half-maximal activity (AC50) under setting [1] is 0.00651 µM [falling, full curve, poor fit].
In the case of `COc1ccc(Cn2nnnc2C(c2ccccc2OC)N2CCC(C(N)=O)CC2)cc1` (stereo not drawn), the cell number change amounted to 5.08%.
Consider `C=CCC1(C(=O)NCCO)CCN(C(=O)OC(C)(C)C)CC1`, for which the cell number change is -17.7%. In addition, the half-maximal activity concentration (AC50) under setting [1] is 1.64 µM [falling, single point].
`O=C(Cc1cccc2ccccc12)N/N=C/c1ccc(Sc2cccc3cccnc23)o1`: the cell number change was -18.6%. Besides, the AC50 under setting [1] was 20.6 µM [falling, single point].
In the case of `C=CCN1C(=O)C(Cc2ccc(OC)cc2)S/C1=N\N=C\c1cccs1` (stereo not drawn), the cell number change came out at 2.57%. For the same compound, under setting [1], the AC50 is 2.31 µM [rising, single point].
`CCOC(=O)c1sc(N(Cc2ccccc2)C(=O)COC(=O)c2ccccc2O)nc1C`: the cell number change amounted to 11.4%. Besides, the AC50 under setting [1] is 4.61 µM [rising, partial curve, poor fit].
Take `c1ccc(C2=Nn3c(nnc3-c3ccncc3)SC2)cc1`: the cell number change was -3.22%. The concentration at half-maximal activity (AC50) under setting [1] was 0.411 µM [rising, full curve, poor fit].
As to `Cc1cccc(-n2ncc3c(NC(C)C)ncnc32)c1`, the cell number change is -71.2%. Besides, the half-maximal activity concentration (AC50) under setting [2] is 4.61 µM [falling, partial curve].
`CC(Oc1ccccc1)C(=O)Nc1ccc(S(=O)(=O)N2CCCC2)cc1` (stereo not drawn): the cell number change was found to be 51.3%. For the same compound, the concentration at half-maximal activity (AC50) under setting [2] was 23.1 µM [rising, single point]. Under setting [1], the AC50 is 0.112 µM [rising, full curve, poor fit].
For the compound `CC(C)C(=O)Nc1cccc(-c2cnc3ccccc3n2)c1`, the AC50 under setting [2] is 1.16 µM [rising, partial curve] and the AC50 under setting [1] is 1.46 µM [rising, partial curve].
Take `Nc1c2ccccc2nc2ccccc12`: the cell number change was -23.2% and -58.1%. Moreover, under setting [2], the half-maximal activity concentration (AC50) is 18.4 µM [falling, single point]. Moreover, under setting [1], the concentration at half-maximal activity (AC50) was 20.6 µM [falling, single point] and 6.51 µM [rising, single point].
